Assay results reported in PMC7915972.
Results are given in words; binding and its absence hold for the method and conditions named. For some of these results: In cells and extracts the contact can be indirect. Some binding calls cover weakened binding; strength is not graded here. Each block holds one molecule with its values, some of them ahead of it.

Chains of the proteins cited; added tags and fusions are not shown.
UniProt Q9EPK8: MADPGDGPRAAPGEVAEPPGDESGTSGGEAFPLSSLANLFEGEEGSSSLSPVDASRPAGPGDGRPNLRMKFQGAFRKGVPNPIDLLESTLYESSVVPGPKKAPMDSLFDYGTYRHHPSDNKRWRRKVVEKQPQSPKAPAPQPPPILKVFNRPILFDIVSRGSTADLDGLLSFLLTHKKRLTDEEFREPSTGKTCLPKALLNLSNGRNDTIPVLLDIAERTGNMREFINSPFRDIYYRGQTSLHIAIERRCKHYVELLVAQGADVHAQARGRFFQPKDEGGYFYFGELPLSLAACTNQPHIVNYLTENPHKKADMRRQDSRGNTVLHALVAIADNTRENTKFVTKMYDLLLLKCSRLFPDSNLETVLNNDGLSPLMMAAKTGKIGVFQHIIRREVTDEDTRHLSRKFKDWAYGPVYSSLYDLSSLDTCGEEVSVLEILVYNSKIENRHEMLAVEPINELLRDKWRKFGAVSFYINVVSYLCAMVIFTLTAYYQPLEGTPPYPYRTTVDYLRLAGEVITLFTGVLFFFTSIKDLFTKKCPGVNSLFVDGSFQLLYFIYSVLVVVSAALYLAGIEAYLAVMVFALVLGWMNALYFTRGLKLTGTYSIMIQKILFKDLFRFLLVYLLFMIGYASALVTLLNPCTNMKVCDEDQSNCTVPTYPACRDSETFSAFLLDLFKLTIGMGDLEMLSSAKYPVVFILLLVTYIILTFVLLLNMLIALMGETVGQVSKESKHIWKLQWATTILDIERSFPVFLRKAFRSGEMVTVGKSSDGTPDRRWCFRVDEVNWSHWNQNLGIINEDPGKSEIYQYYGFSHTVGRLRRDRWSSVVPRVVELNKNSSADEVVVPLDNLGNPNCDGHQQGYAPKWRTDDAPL
UniProt Q62261: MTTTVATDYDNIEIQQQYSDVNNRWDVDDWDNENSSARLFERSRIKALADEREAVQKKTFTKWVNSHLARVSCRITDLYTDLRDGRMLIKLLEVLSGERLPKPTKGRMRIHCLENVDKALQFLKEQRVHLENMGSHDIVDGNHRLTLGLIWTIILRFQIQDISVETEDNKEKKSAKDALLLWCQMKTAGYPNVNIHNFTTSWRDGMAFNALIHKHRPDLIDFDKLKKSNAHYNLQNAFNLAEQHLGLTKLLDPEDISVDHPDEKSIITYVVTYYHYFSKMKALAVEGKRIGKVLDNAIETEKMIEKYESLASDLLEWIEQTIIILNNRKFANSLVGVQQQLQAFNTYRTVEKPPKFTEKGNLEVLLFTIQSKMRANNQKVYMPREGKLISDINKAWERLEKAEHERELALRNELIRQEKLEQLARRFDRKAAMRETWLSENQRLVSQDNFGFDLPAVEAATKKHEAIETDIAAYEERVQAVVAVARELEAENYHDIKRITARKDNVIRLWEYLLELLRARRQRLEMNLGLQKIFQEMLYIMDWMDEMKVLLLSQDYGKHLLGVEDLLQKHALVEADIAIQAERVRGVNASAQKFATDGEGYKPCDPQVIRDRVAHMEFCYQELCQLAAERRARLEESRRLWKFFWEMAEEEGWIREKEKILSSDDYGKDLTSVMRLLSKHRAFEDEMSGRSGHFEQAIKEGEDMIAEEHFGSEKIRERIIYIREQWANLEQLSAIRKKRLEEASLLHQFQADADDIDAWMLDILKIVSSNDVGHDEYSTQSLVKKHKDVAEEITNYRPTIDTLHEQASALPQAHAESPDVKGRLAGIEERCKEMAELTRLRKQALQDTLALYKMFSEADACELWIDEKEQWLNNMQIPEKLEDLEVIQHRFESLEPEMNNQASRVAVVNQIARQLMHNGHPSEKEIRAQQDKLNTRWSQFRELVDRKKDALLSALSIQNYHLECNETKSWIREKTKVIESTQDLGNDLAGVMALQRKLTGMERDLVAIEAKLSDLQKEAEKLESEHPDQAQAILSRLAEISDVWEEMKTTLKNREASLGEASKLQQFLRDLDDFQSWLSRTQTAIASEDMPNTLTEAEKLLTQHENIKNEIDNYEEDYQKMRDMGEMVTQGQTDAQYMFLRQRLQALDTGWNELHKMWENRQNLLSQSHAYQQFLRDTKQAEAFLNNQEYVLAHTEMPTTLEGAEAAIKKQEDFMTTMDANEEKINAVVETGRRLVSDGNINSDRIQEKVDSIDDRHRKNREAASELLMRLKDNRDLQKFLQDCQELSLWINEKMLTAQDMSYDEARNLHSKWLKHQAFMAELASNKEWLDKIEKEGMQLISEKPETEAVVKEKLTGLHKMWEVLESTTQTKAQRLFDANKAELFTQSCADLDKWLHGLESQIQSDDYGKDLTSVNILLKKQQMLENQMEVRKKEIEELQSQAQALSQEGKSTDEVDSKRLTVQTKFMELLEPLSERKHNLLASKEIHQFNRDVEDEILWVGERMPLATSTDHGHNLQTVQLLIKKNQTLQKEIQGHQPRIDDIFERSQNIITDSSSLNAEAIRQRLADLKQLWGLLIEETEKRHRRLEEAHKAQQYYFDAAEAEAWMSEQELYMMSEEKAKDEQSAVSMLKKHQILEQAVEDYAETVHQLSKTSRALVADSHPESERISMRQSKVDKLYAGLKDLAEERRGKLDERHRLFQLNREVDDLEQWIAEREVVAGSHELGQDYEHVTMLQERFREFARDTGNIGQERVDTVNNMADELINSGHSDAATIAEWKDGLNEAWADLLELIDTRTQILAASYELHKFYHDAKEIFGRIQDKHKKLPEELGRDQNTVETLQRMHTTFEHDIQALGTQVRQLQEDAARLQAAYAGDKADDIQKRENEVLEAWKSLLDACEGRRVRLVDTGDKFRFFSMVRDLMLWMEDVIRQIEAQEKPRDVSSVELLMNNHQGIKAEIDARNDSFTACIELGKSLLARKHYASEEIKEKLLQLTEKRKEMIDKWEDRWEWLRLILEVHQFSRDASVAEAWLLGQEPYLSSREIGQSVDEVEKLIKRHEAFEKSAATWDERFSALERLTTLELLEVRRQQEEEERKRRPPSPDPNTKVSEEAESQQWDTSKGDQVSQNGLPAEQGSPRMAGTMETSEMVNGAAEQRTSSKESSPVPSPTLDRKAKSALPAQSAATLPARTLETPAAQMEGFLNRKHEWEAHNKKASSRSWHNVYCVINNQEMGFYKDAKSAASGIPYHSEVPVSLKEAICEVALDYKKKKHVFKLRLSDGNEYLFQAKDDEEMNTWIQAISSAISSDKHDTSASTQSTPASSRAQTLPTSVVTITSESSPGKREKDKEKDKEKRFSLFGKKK
UniProt P68368: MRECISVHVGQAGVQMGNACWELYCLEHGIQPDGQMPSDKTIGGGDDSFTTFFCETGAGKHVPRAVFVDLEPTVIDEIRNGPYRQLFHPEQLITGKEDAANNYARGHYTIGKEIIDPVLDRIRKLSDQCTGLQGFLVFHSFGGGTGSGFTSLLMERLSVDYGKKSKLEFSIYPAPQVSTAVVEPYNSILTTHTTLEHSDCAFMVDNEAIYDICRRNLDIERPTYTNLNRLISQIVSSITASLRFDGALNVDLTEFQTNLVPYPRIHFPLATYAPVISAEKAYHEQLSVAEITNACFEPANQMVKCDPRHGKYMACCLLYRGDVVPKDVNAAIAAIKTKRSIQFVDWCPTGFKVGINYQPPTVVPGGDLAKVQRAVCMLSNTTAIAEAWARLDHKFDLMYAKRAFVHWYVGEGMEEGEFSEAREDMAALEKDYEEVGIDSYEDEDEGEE

Legend:
[1] = biological target: T1, Na-K-2Cl cotransporter 1 (Solute carrier family 12 member 2) (mouse (endogenous in choroid plexus)) (UniProt P55012); experiment: native gel or EMSA; mouse choroid plexus homogenate, 1% digitonin, soluble proteins on 3–12% NativePAGE gels, 150 V, 1 h, 4 °C; Coomassie bands cut out for mass spectrometry, and immunoblots of native gels; co-migration
T1 sequence: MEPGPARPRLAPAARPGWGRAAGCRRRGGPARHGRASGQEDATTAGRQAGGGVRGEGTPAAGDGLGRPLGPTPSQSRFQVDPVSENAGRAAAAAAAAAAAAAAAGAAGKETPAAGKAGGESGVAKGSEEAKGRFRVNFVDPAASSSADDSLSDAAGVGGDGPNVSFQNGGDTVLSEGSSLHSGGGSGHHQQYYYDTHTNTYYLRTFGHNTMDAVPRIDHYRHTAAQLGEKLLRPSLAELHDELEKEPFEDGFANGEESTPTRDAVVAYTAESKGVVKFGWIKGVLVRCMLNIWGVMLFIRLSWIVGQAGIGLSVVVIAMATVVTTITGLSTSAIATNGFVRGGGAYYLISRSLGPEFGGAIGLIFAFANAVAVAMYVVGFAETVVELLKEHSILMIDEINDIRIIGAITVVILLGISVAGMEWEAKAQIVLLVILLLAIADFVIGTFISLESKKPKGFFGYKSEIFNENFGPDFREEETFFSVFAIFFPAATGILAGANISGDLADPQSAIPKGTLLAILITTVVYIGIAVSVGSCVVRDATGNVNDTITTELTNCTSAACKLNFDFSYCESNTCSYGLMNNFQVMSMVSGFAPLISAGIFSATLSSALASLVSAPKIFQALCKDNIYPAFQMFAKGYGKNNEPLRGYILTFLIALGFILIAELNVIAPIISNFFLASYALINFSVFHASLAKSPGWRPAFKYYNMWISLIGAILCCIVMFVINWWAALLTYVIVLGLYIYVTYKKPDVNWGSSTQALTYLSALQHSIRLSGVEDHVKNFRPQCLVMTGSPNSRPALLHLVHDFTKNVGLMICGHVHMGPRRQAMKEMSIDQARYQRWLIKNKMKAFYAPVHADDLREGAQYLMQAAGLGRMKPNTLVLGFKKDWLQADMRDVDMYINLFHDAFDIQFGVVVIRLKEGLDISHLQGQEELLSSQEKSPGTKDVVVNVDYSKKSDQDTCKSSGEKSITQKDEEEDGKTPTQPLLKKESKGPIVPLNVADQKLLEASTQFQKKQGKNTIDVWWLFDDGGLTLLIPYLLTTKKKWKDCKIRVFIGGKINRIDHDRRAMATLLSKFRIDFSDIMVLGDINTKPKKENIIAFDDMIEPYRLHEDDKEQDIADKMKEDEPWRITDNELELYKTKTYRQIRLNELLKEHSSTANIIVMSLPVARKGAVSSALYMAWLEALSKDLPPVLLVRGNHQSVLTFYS

[2] = biological target: T2, Sodium-driven chloride bicarbonate exchanger (Na-dependent chloride-bicarbonate exchanger) (mouse (endogenous in choroid plexus)) (UniProt Q5DTL9); experiment: as above
T2 sequence: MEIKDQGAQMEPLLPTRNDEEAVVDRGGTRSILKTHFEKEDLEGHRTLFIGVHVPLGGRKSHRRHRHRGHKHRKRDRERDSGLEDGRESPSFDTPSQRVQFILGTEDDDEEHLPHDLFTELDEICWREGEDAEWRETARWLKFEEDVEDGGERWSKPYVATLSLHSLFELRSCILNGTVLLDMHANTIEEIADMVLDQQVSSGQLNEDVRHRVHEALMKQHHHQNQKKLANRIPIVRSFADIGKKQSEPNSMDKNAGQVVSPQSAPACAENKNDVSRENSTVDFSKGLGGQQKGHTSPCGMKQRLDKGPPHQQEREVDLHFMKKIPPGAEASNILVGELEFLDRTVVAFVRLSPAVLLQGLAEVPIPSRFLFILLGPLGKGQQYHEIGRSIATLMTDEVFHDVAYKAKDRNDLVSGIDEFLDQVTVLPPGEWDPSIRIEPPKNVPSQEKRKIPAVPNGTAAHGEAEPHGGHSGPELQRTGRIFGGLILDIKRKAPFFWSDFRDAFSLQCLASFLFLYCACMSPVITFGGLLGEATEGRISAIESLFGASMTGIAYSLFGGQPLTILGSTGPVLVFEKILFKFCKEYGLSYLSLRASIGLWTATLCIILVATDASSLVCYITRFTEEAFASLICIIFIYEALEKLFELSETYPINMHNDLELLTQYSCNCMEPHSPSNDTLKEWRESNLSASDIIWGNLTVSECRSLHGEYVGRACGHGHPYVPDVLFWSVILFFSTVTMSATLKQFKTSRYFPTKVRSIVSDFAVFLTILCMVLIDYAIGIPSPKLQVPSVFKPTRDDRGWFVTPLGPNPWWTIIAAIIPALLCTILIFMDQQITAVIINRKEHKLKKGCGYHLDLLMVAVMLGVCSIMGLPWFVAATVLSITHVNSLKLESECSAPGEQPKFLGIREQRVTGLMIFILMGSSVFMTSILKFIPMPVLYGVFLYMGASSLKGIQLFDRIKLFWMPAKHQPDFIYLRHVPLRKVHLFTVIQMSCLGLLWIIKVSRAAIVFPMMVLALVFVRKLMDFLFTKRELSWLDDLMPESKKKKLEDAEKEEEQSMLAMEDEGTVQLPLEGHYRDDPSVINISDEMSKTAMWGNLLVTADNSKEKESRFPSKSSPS

[3] = biological target: T3, Anion exchange protein 2 (mouse (endogenous in choroid plexus)) (UniProt P13808); experiment: as above
T3 sequence: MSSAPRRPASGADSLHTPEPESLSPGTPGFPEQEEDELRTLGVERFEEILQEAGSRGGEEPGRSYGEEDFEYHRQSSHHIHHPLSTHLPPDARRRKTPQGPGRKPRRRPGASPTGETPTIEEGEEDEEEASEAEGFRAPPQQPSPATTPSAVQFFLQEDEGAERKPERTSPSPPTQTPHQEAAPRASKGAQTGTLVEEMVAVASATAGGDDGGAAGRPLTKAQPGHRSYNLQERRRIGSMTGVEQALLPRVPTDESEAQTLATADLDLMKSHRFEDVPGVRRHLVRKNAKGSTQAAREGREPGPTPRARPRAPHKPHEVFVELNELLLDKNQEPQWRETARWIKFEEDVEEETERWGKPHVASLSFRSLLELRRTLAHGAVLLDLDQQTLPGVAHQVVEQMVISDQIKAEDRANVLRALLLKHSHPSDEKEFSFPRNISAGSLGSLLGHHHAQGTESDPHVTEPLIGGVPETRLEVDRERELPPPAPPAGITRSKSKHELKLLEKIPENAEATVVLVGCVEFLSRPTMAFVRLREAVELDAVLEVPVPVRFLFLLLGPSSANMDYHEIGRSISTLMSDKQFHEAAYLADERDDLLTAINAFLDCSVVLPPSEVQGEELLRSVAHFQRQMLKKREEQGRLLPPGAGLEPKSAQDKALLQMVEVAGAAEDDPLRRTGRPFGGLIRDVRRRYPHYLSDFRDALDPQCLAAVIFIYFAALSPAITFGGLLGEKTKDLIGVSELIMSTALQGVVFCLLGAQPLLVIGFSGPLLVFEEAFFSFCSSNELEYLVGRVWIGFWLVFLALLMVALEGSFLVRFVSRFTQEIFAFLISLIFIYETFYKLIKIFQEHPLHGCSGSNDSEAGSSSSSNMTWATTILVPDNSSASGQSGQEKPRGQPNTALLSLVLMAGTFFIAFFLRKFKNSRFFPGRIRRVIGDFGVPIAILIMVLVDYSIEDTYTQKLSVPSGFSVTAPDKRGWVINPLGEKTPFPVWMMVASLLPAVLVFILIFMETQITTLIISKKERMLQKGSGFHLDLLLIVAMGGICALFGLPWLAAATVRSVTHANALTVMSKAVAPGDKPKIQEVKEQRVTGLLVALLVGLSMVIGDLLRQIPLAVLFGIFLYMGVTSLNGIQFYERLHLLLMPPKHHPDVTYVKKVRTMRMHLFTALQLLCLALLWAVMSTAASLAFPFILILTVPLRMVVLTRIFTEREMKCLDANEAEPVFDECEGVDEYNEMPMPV

[4] = biological target: T1, Na-K-2Cl cotransporter 1 (Solute carrier family 12 member 2) (mouse (endogenous in choroid plexus)); experiment: proximity ligation; Duolink PLA with pairs of primary antibodies on paraformaldehyde-fixed paraffin sections of mouse brain (choroid plexus epithelium)

binding [1]: binds
Molecule: Transient receptor potential cation channel V4 (from UniProt Q9EPK8 1-871)

binding [1]: binds
binding [2]: binds
binding [3]: binds
Molecule: Spectrin beta chain, non-erythrocytic 1 (from UniProt Q62261 1-2363)

Further lines, the molecule ahead of its results:

Molecule: Tubulin alpha-4A chain (from UniProt P68368 1-448)
binding [1]: binds

B1: Sodium-driven chloride bicarbonate exchanger (Na-dependent chloride-bicarbonate exchanger) (protein, UniProt Q5DTL9 1-1118)
chain: T2 sequence
binding [4]: binds
binding [1]: binds
